According to doi:10.1101/2021.02.07.430159:

Target: GST-MLLE protein (MLLE domain of PABPC1)
Assay: SPR

- binding: no binding
B1: super-PAM2-Phe10Ala peptide (peptide)
peptide: SNLNPNAPEAHPGVPWKGLQ

These are yes or no findings as the source states them, for the method shown.
